Measurements: US5648381A, “Derivatives of indan-1,3-dione and indan-1,2,3-trione, methods of preparing them and therapeutic use thereof” (Innothera, priority 1992, dated 1997)
At least one structure is not confirmed: it was looked up by name or label, or the drawing left a doubt.

Key:
[1] = system: basic venous tone of the rat; assay: Basic venous tone and arterial pressure in vivo (normal and after cardiac arrest); settings: 1 to 3 picomols intravenously
Protocol: In the in vivo test, the products were administered intravenously in the form of a pure aqueous solution or intraperitoneally in the form of an aqueous solution optionally containing DMSO or orally in solution or in suspension in carboxymethyl cellulose or in a composite aqueous solution containing Tween® and DMSO in certain cases.
In vivo, the arterial and venous pressure was measured under normal conditions and after cardiac arrest. During cardiac arrest, the venous tone was calculated from the venous and arterial pressure measured at equilibrium and corrected in dependence on the relative differences in compliance between these two networks (Samar and Coleman, Am. J. Physiol., 1978, 234:H94-100; Yamamoto et al., Am. J. Physiol., 1980, 238:H823-828).

[2] = Free radical trapping (DPPH) effect; settings: in vitro, DPPH model
Source text: In the in vitro test, the compounds were solubilised in aqueous solution, either pure or containing DMSO or alcohol.
The overall "free radical trapping" effect was studied in vitro in a model using 1,1-diphenyl-2-picrylhydrazyl (DPPH) as stable free radical, the method being derived from that described by Lamaison et al., Plantes Medic. et phytotheraphie, XXII, 1988, 231-234.

Structure (SMILES): O=C(NNC1(O)C(=O)c2ccccc2C1=O)c1ccccc1 [Example 3, 2-benzoyl hydrazino-2-hydroxy-indan-1,3-dione]
- effect on arterial pressure [1]: without affecting the arterial pressure

Structure (SMILES): O=c1c(=Nc2ccccc2O)c(=O)c2ccccc12 [Example 56, 2-(2-hydroxyphenyl)-iminoindan-1,3-dione]
- maximum anti-radical effect [2]: more than 95%
